Measured values as given in article PMC12431657, “Discovery and mechanistic insights of dibenzoylmethane as a broad spectrum inhibitor of coronavirus” (PLOS Pathogens, 2025).
Like-named read-outs stand apart in the source and are kept apart here. Screen size: about 3,300 compounds; about 95 (3%) showed an effect of 50% or more. Some of the results follow. Bridge positions count the residues as written; N and C are the ends. Square brackets hold non-standard residues; d marks the D form. Peptide text beside a SMILES is read from it. * marks the point of attachment. Ileψ(thiazoline)Cys = CC[C@H](C)[C@H](N)C1=N[C@H](C(=O)*)CS1; dOrn = NCCC[C@@H](N)C(=O)O

Tested on: HCoV-229E
Parameters: species or system Huh-7; HTS, protection from HCoV-229E induced cell death, luminescent cell viability (CellCounting-Lite 2.0), inhibition rate
Details: 24 h post infection, 1 h compound pre-incubation, 10 µM, inhibitor

| Compound | 229E Inhibition rate [%] | 229E Inhibition rate (229E Inhibition rate, 24 h) [%] |
| --- | --- | --- |
| O=c1c(O)c(-c2ccc(O)cc2)oc2cc(O)ccc12 [3,7,4'-Trihydroxyflavone] | 13 | – |
| COc1cc(OC)c(CCC(=O)c2ccc(O)cc2)c(OC)c1 [Loureirin B] | 16 | – |
| CCCCCCC/C=C/C(=O)N1C(=O)C(C(C)=O)=C(O)[C@H]1CC(C)C [Reutericyclin] | 0.8 | – |
| Cc1cc(O)cc(O)c1 [Orcinol] | 7 | – |
| Cc1coc2c1C(=O)c1ccc3c(c1C2=O)CCCC3(C)C [Isotanshinone IIA] | 12.5 | – |
| COc1ccccc1OCC(O)CO (centres unmarked) [Guaifenesin] | 21.2 | – |
| O=C1C[C@@H](c2ccc(O)cc2)Oc2cc(O[C@@H]3O[C@H](CO)[C@@H](O)[C@H](O)[C@H]3O)ccc21 [Neoliquiritin] | 26.2 | – |
| NC[C@@H]1O[C@H](O[C@H]2[C@@H](O)[C@H](O[C@@H]3[C@@H](O)[C@H](N)C[C@H](N)[C@H]3O[C@H]3O[C@H](CO)[C@@H](O)[C@H](O)[C@H]3N)O[C@@H]2CO)[C@H](N)[C@@H](O)[C@@H]1O [Paromomycin (sulfate)] | 8.2 | – |
| CC[C@]1(O)C[C@H]2CN(CCc3c([nH]c4ccccc34)[C@@](C(=O)OC)(c3cc4c(cc3OC)N(C=O)[C@H]3[C@@](O)(C(=O)OC)[C@H](OC(C)=O)[C@]5(CC)C=CCN6CC[C@]43[C@@H]65)C2)C1 [Vincristine (sulfate)] | 12 | – |
| CN(C)Cc1c[nH]c2ccccc12 [Gramine] | 0 | – |
| CC(=O)OC[C@@]12CC[C@@H](C)[C@](C)(CCC3=CC(=O)OC3)[C@H]1C[C@H](O)C=C2CO [Blinin] | 9.8 | – |
| O=C(O)c1ccccc1O [Sodium Salicylate] | – | 19.4 |
| Oc1ccc(/C=C/c2cc(O)cc(O)c2)cc1 [Resveratrol] | 10.1 | – |
| CC(=O)OCC[N+](C)(C)C [Acetylcholine (chloride)] | – | 35.4 |
| CCCCCCCCCCCCCCCCC(=O)OC [Methyl heptadecanoate] | 20.9 | – |
| C=C1C(=O)[C@]23[C@H](O)[C@H]1CC[C@H]2[C@@]12CO[C@]3(O)[C@@H](O)[C@@H]1C(C)(C)CC[C@@H]2O [Oridonin] | 0 | – |
| NC(CCC(=O)O)C(=O)O (racemic) [DL-Glutamic acid] | 6.9 | – |
| COc1ccc([C@@H]2OC[C@H]3[C@@H]2CO[C@@H]3c2ccc3c(c2)OCO3)cc1OC [Fargesin] | 13.4 | – |
| O=C(O)C[C@@](O)(C(=O)O)[C@H](O)C(=O)O [(-)-Hydroxycitric acid] | 12.3 | – |
| CC(=O)OC/C1=C\[C@H]2[C@@H](OC(=O)/C=C/c3ccccc3)[C@@H](C)C[C@]2(OC(C)=O)C(=O)/C(C)=C/[C@@H]2[C@H](CC1)C2(C)C [Euphorbia factor L7a] | 90.9 | – |

One compound at a time, from the list above. Values in the order: 229E Inhibition rate [%]	229E Inhibition rate (229E Inhibition rate, 24 h) [%]
NC[C@@H]1O[C@H](O[C@H]2[C@@H](O)[C@H](O[C@@H]3[C@@H](O)[C@H](N)C[C@H](N)[C@H]3O[C@H]3O[C@H](CO)[C@@H](O)[C@H](O)[C@H]3N)O[C@@H]2CO)[C@H](N)[C@@H](O)[C@@H]1O [Paromomycin (sulfate)] in the list: 8.2	–
Cc1cc(O)cc(O)c1 [Orcinol] in the list: 7	–
COc1cc(OC)c(CCC(=O)c2ccc(O)cc2)c(OC)c1 [Loureirin B] in the list: 16	–

(continued)

| Compound | 229E Inhibition rate [%] | 229E Inhibition rate (229E Inhibition rate, 24 h) [%] |
| --- | --- | --- |
| CC(=O)OCC1=C[C@@H]2OC(=O)C3=CO[C@@H](O[C@@H]4O[C@H](CO)[C@@H](O)[C@H](O)[C@H]4O)[C@H]1[C@@H]32 [Asperuloside] | 8 | – |
| O=C(CCc1ccc(O)cc1)c1c(O)cc(O)cc1O [Phloretin] | 35.3 | – |
| C[C@@H]1CC[C@@]2(OC1)O[C@H]1C[C@H]3[C@@H]4CC=C5C[C@@H](O[C@@H]6O[C@H](CO)[C@@H](O[C@@H]7O[C@H](CO)[C@@H](O)[C@H](O)[C@H]7O)[C@H](O)[C@H]6O[C@@H]6O[C@@H](C)[C@H](O)[C@@H](O)[C@H]6O)CC[C@]5(C)[C@H]4CC[C@]3(C)[C@H]1[C@@H]2C [Deltonin] | 12.9 | – |
| CC[C@H](C)[C@H](N)C1=N[C@H](C(=O)N[C@@H](CC(C)C)C(=O)N[C@H](CCC(=O)O)C(=O)N[C@H](C(=O)N[C@H]2CCCCNC(=O)[C@H](CC(N)=O)NC(=O)[C@@H](CC(=O)O)NC(=O)[C@H](Cc3cnc[nH]3)NC(=O)[C@@H](Cc3ccccc3)NC(=O)[C@H]([C@@H](C)CC)NC(=O)[C@@H](CCCN)NC2=O)[C@@H](C)CC)CS1 [Bacitracin] ({Ileψ(thiazoline)Cys}-L[dE]IK[dOrn]I[dF]H[dD]N; lactam 4-C) | 6.9 | – |
| CC(C)=CCC[C@](C)(O)[C@H]1CC[C@]2(C)[C@@H]1[C@H](O)C[C@@H]1[C@@]3(C)C[C@@H](O)[C@H](O[C@@H]4O[C@H](CO)[C@@H](O)[C@H](O)[C@H]4O[C@@H]4O[C@H](CO)[C@@H](O)[C@H](O)[C@H]4O)C(C)(C)[C@@H]3CC[C@]12C [Gypenoside L] | 61.5 | – |
| O=C(c1ccccc1)C(O)c1ccccc1 (centres unmarked) [Benzoin] | 34.2 | – |
| Cc1c[nH]c2ccccc12 [Skatole] | 10.2 | – |
| c1ccc(CSSCc2ccccc2)cc1 [Dibenzyl disulfide] | 23.1 | – |
| CC(S)C(=O)NCC(=O)O (centres unmarked) [Tiopronin] | 17.9 | – |
| O=c1ccc2ccc(O[C@@H]3O[C@H](CO)[C@@H](O)[C@H](O)[C@H]3O)cc2o1 [Skimmin] | 17.9 | – |
| Nc1ncnc2c1ncn2[C@@H]1O[C@H](COP(=O)(O)O)[C@@H](O)[C@H]1O [Adenosine monophosphate] | – | 0 |
| CC(C)CCCCCCCCCCCC(=O)O [13-Methyltetradecanoic acid] | 23.2 | – |
| O=C1CC(c2ccc(O)cc2)Oc2cc(O)cc(O)c21 (racemic) [(±)-Naringenin] | 9.9 | – |
| COc1cc(/C=C/C(=O)OC(C)C)ccc1O [Isopropyl ferulate] | 36.5 | – |
| O=C(/C=C/c1ccc(O[C@@H]2O[C@H](CO)[C@@H](O)[C@H](O)[C@H]2O[C@@H]2OC[C@](O)(CO)[C@H]2O)cc1)c1ccc(O)cc1O [Isoliquiritin apioside] | 63.8 | – |
| Oc1cc(O)c2c(c1)O[C@H](c1cc(O)c(O)c(O)c1)[C@H](O)C2 [(-)-Epigallocatechin] | 10.4 | – |
| CC(=O)OC[C@H](N)C(=O)O [O-Acetylserine] | 42.6 | – |
| O=C(c1ccc(O)cc1)c1c(O)cc(O)c([C@@H]2O[C@H](CO)[C@@H](O)[C@H](O)[C@H]2O)c1O [Iriflophenone 3-C-glucoside] | 18.4 | – |
| C[N+](C)(C)CCO [L-Uridine] | 18.9 | – |
| CC(C)(CO)[C@@H](O)C(=O)NCCC(=O)O [D-Pantothenic acid] | – | 20.7 |

| Compound | 229E Inhibition rate [%] | 229E Inhibition rate (229E Inhibition rate, 24 h) [%] |
| --- | --- | --- |
| C[C@H]1[C@H](C)CC[C@]2(CO)CC[C@]3(C)C(=CC[C@@H]4[C@@]5(C)CC[C@H](O)C(C)(C)[C@@H]5CC[C@]43C)[C@H]12 [Uvaol] | 5.7 | – |
| NC(CCSSCCC(N)C(=O)O)C(=O)O (centres unmarked) [4,4'-Disulfanediylbis(2-aminobutanoic acid)] | 7.3 | – |
| OC[C@H]1O[C@H](O[C@H]2O[C@H](CO)[C@@H](O)[C@H](O)[C@H]2O)[C@H](O)[C@@H](O)[C@@H]1O [D-(+)-Trehalose] | – | 16.9 |
| O=C(O)[C@H](O)c1ccccc1 [D-(-)-Mandelic acid] | 7.5 | – |
| COc1ccc(C[C@H]2COC(=O)[C@@H]2Cc2ccc(O[C@@H]3O[C@H](CO)[C@@H](O)[C@H](O)[C@H]3O)c(OC)c2)cc1OC [Arctiin] | 4.1 | – |
| Cn1c(=O)[nH]c(=O)c2[nH]cnc21 [3-Methylxanthine] | 8.5 | – |
| COc1ccc(-c2cc(=O)c3c(O)c(OC)c(O[C@@H]4O[C@H](CO[C@@H]5O[C@@H](C)[C@H](O)[C@@H](O)[C@H]5O)[C@@H](O)[C@H](O)[C@H]4O)cc3o2)cc1 [Pectolinarin] | 19 | – |
| CCO[C@@H]1O[C@H](C(=O)O)[C@@H](O)[C@H](O)[C@H]1O [Ethyl glucuronide] | 10.6 | – |
| C[C@H](CCC(=O)NCC(=O)O)[C@H]1CC[C@H]2[C@@H]3[C@@H](O)C[C@@H]4C[C@H](O)CC[C@]4(C)[C@H]3CC[C@]12C [Glycoursodeoxycholic acid] | 0 | – |
| CCCCCCCCCCCCCC(=O)O[C@@H]1[C@@H](C)[C@@]2(O)[C@@H](C=C(CO)C[C@]3(O)C(=O)C(C)=C[C@@H]23)[C@@H]2C(C)(C)[C@]12OC(C)=O [Phorbol 12-myristate 13-acetate] | 2.8 | – |
| CO[C@H]1/C=C/O[C@@]2(C)Oc3c(C)c(O)c4c(O)c(cc(O)c4c3C2=O)NC(=O)/C(C)=C\C=C\[C@H](C)[C@H](O)[C@@H](C)[C@@H](O)[C@@H](C)[C@H](OC(C)=O)[C@@H]1C [Rifamycin (sodium)] | 7.5 | – |
| C/C=C/c1ccc(OC)cc1 [Trans-Anethole] | – | 7.8 |
| CC(C)=CCc1c(O)ccc(C(=O)/C=C/c2ccc(O)cc2)c1O [Isobavachalcone] | 7.1 | – |
| O=C1C[C@@H](c2ccc(O[C@@H]3O[C@H](CO)[C@@H](O)[C@H](O)[C@H]3O)cc2)Oc2cc(O)cc(O)c21 [Choerospondin] | 13.9 | – |
| C/C=C(/C)C(=O)Oc1c(OC)c(OC)cc2c1-c1c(cc(OC)c(OC)c1OC)C[C@](C)(O)[C@@H](C)C2 [Angeloylgomisin H] | 0 | – |
| N[C@H]1C(O)O[C@H](CO)[C@@H](O)[C@@H]1O (some centres unmarked) [Glucosamine (sulfate)] | – | 43.7 |
| O=C(O)[C@@H](O)[C@H](O)[C@H](O)[C@@H](O)C(=O)O [Mucic acid] | 0 | – |
| CCCCC/C=C/C(=O)CCc1ccc(O)c(OC)c1 [Shogaol] | 27.7 | – |
| CC(C)=CCC12Oc3cc(O)ccc3C1(O)Oc1cc(O)c([C@H]3C=C(C)C[C@@H](c4ccc(O)cc4O)[C@@H]3C(=O)c3ccc(O)cc3O)c(O)c1C2=O (some centres unmarked) [Sanggenon D] | 23.4 | – |
